Laboratory results: PubChem BioAssay AID1224826 (NIAID, 2016)
Purpose: 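Knock-downs that raise or lower Tnf reporter signal after endotoxin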 (primary screen). Cells: RAW264.7 G9 macrophages from mouse bearing reporters for p65 (GFP) and the Tnf promoter (mCherry). Reagent: siRNA pool against mouse genes, 100 nM. Time to read-out: 16 h of LPS stimulation, after 2 days of siRNA transfection. Treatment: bacterial lipopolysaccharide (Salmonella minnesota R595), 10 ng/ml. Measurement: 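Imaged Tnf reporter mCherry in nuclei, minus background, normalised per plate to the median and expressed as robust z-scores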. Scale: Tnf reporter robust z-score: higher = stronger Tnf promoter reporter signal after LPS; Tnf reporter intensity: higher = stronger Tnf promoter reporter signal. Call rule: 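a well counts as active at a score of -1.3 or below (Tlr4 knock-down control median) or above 3 (raised signal); controls and wells holding fewer than 50 cells are excluded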. Calls: active = Tnf reporter clearly lowered or raised; inactive = no clear change in Tnf reporter.
This is an unselected part of about 17,000 reagents tested. Over the whole deposit, about 1,110 (6.6%) are marked active. 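Active means lowered or raised reporter signal; replicate intensities are raw and not normalised per plate.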 Some reagents were tested in more than one well and are listed for each. Not all columns of the deposit are shown.

gene	Tnf reporter robust z-score	fewer than 50 cells in well	Tnf reporter intensity, replicate 1	Outcome
Cyren (cell cycle regulator of NHEJ)		fewer than 50 cells per well; well left out of calls	116	inactive
Casp8 (caspase 8)	0.66	enough cells in well	153	inactive
Gm10336 (predicted gene 10336)	0.43	enough cells in well	164	inactive
Desi2 (desumoylating isopeptidase 2)		fewer than 50 cells per well; well left out of calls	50.3	inactive
Runx1 (runt related transcription factor 1)	-1.05	enough cells in well	75.3	inactive
Or8k32 (olfactory receptor family 8 subfamily K member 32)	0.91	enough cells in well	224	inactive
Spats1 (spermatogenesis associated, serine-rich 1)	1.84	enough cells in well	191	inactive
Chi3l1 (chitinase 3 like 1)	1.03	enough cells in well	97.4	inactive
Gemin2 (gem nuclear organelle associated protein 2)	-0.84	enough cells in well	231	inactive
Kcna4	-0.76	enough cells in well	186	inactive
Cdc16 (CDC16 cell division cycle 16)	0.01	enough cells in well	267	inactive
Xkr8 (XK related 8)		fewer than 50 cells per well; well left out of calls	119	inactive
Six1 (sine oculis-related homeobox 1)	-0.98	enough cells in well	213	inactive
Sp140l2 (Sp140 nuclear body protein like 2)	-0.82	enough cells in well	119	inactive
Acyp1 (acylphosphatase 1)	0.23	enough cells in well	180	inactive
H2bc18 (H2B clustered histone 18)	-1.1	enough cells in well	168	inactive
Ints13 (integrator complex subunit 13)	-0.38	enough cells in well	160	inactive
Kiss1r (KISS1 receptor)	-0.71	enough cells in well	152	inactive
Gale (galactose-4-epimerase, UDP)	0.17	enough cells in well	263	inactive
Plppr2 (phospholipid phosphatase related 2)	0.38	enough cells in well	203	inactive
Pex12 (peroxisomal biogenesis factor 12)	-0.94	enough cells in well	183	inactive
Sipa1l3 (signal-induced proliferation-associated 1 like 3)	-0.99	enough cells in well	169	inactive
Hip1r (huntingtin interacting protein 1 related)	0.25	enough cells in well	253	inactive
Igdcc3 (immunoglobulin superfamily, DCC subclass, member 3)	0.43	enough cells in well	310	inactive
Catsper2 (cation channel, sperm associated 2)	-0.9	enough cells in well	172	inactive
Psmd12 (proteasome (prosome, macropain) 26S subunit, non-ATPase, 12)		fewer than 50 cells per well; well left out of calls	206	inactive
Nemp2 (nuclear envelope integral membrane protein 2)	0.36	enough cells in well	151	inactive
1700009J07Rik (RIKEN cDNA 1700009J07 gene)	1.96	enough cells in well	183	inactive
Pomk (protein-O-mannose kinase)	0.27	enough cells in well	248	inactive
Pomk (protein-O-mannose kinase)		fewer than 50 cells per well; well left out of calls	246	inactive
Keg1 (kidney expressed gene 1)	0.66	enough cells in well	257	inactive

Entries listed so far whose target name begins with I or i:
gene	Tnf reporter robust z-score	fewer than 50 cells in well	Tnf reporter intensity, replicate 1	Outcome
Ints13 (integrator complex subunit 13)	-0.38	enough cells in well	160	inactive
Igdcc3 (immunoglobulin superfamily, DCC subclass, member 3)	0.43	enough cells in well	310	inactive

Next entries follow.
gene	Tnf reporter robust z-score	fewer than 50 cells in well	Tnf reporter intensity, replicate 1	Outcome
Hkdc1 (hexokinase domain containing 1)	-0.63	enough cells in well	125	inactive
Mtcl3 (MTCL family member 3)	0.56	enough cells in well	199	inactive
Fbxw2 (F-box and WD-40 domain protein 2)	-0.87	enough cells in well	157	inactive
Fkbp10 (FK506 binding protein 10)	1.03	enough cells in well	275	inactive
Spaar (small regulatory polypeptide of amino acid response)	1.19	enough cells in well	272	inactive
Tnrc6b (trinucleotide repeat containing 6b)	0.9	enough cells in well	220	inactive
Nucks1	0.06	enough cells in well	192	inactive
Csrnp1 (cysteine-serine-rich nuclear protein 1)	0.83	enough cells in well	188	inactive
Trim30b (tripartite motif-containing 30B)	0.91	enough cells in well	184	inactive
Vhl (von Hippel-Lindau tumor suppressor)	-0.09	enough cells in well	221	inactive
Usp21 (ubiquitin specific peptidase 21)	-1.07	enough cells in well	144	inactive
Trip12 (thyroid hormone receptor interactor 12)	-1.27	enough cells in well	159	inactive
Il16 (interleukin 16)	-1.38	enough cells in well	160	active
Crybg1 (crystallin beta-gamma domain containing 1)	-0.6	enough cells in well	178	inactive
H2-Ob (histocompatibility 2, O region beta locus)	-0.29	enough cells in well	185	inactive
Cd300a (CD300A molecule)	0.03	enough cells in well	185	inactive
Tnik (TRAF2 and NCK interacting kinase)	-0.1	enough cells in well	171	inactive
Kcnj4 (potassium inwardly-rectifying channel, subfamily J, member 4)	2.11	enough cells in well	344	inactive
Lhx4 (LIM homeobox protein 4)	0.23	enough cells in well	198	inactive
Pkdrej (polycystin (PKD) family receptor for egg jelly)	-0.11	enough cells in well	273	inactive
Tspan10 (tetraspanin 10)	-0.8	enough cells in well	174	inactive
Ap3s1 (adaptor-related protein complex 3, sigma 1 subunit)	-1.24	enough cells in well	108	inactive
Or8d1b (olfactory receptor family 8 subfamily D member 1B)	1.3	enough cells in well	211	inactive
Nup88 (nucleoporin 88)	-0.79	enough cells in well	167	inactive
Cd300c (CD300C molecule)	-0.4	enough cells in well	197	inactive
Atad3aos (ATPase family, AAA domain containing 3A, opposite strand)		fewer than 50 cells per well; well left out of calls	176	inactive
Tbk1 (TANK-binding kinase 1)	0.35	enough cells in well	196	inactive
Noxa1 (NADPH oxidase activator 1)	-1.43	enough cells in well	104	active
Vamp4 (vesicle-associated membrane protein 4)	0.32	enough cells in well	149	inactive
Kcnip2 (Kv channel-interacting protein 2)	0.87	enough cells in well	123	inactive
Npas2 (neuronal PAS domain protein 2)	-0.72	enough cells in well	174	inactive
Neurog2 (neurogenin 2)	0.67	enough cells in well	167	inactive
Tff3 (trefoil factor 3, intestinal)	-0.64	enough cells in well	86.7	inactive
Cdcp2 (CUB domain containing protein 2)	-1.04	enough cells in well	107	inactive
Dnajc1 (DnaJ heat shock protein family (Hsp40) member C1)	1.76	enough cells in well	307	inactive
Pskh1 (protein serine kinase H1)	-0.23	enough cells in well	184	inactive
Trim47 (tripartite motif-containing 47)	5.39	enough cells in well	276	active
Atp6v0e (ATPase, H+ transporting, lysosomal V0 subunit E)	-0.5	enough cells in well	138	inactive
C130073F10Rik (RIKEN cDNA C130073F10 gene)	-0.75	enough cells in well	88.1	inactive
Wbp1 (WW domain binding protein 1)	-0.06	enough cells in well	103	inactive
Zfp691 (zinc finger protein 691)		fewer than 50 cells per well; well left out of calls	130	inactive
Serpinb9e (serine (or cysteine) peptidase inhibitor, clade B, member 9e)	-0.76	enough cells in well	76.7	inactive
Cdc25b (cell division cycle 25B)	1.58	enough cells in well	424	inactive
Treh (trehalase (brush-border membrane glycoprotein))	0.73	enough cells in well	137	inactive
